Laboratory results reported in publication PMC11193767.

Protein sequences, listed by entry. Tags and fused reporters are not part of them.
UniProt Q8IWT6: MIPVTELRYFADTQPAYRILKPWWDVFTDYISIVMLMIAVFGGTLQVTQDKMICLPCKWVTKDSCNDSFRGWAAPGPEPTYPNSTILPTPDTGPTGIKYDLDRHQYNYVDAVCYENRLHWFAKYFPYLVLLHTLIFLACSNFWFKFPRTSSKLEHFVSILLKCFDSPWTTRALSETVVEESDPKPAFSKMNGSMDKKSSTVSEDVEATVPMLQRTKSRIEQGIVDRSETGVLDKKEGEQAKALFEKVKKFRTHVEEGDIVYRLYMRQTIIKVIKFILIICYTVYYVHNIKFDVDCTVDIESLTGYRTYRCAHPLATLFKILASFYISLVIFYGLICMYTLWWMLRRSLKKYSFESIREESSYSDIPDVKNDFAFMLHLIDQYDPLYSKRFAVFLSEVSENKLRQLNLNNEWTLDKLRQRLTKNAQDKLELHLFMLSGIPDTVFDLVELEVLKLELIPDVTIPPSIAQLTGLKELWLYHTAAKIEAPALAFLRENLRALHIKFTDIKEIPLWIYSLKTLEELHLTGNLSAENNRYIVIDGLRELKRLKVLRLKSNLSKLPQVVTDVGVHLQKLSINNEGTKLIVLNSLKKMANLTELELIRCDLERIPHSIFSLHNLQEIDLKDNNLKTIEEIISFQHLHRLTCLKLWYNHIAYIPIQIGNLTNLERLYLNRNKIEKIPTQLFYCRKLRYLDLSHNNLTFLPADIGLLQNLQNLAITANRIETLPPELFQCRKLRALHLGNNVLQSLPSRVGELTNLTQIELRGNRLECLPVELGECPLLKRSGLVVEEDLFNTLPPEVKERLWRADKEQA

B1: Metalloreductase STEAP3 (protein, UniProt Q658P3-2 1-498)
chain: MSHQPAVATKMPEEMDKPLISLHLVDSDSSLAKVPDEAPKVGILGSGDFARSLATRLVGSGFKVVVGSRNPKRTARLFPSAAQVTFQEEAVSSPEVIFVAVFREHYSSLCSLSDQLAGKILVDVSNPTEQEHLQHRESNAEYLASLFPTCTVVKAFNVISAWTLQAGPRDGNRQVPICGDQPEAKRAVSEMALAMGFMPVDMGSLASAWEVEAMPLRLLPAWKVPTLLALGLFVCFYAYNFVRDVLQPYVQESQNKFFKLPVSVVNTTLPCVAYVLLSLVYLPGVLAAALQLRRGTKYQRFPDWLDHWLQHRKQIGLLSFFCAALHALYSFCLPLRRAHRYDLVNLAVKQVLANKSHLWVEEEVWRMEIYLSLGVLALGTLSLLAVTSLPSIANSLNWREFSFVQSSLGFVALVLSTLHTLTYGWTRAFEESRYKFYLPPTFTLTLLVPCVVILAKALFLLPCISRRLARIRRGWERESTIKFTLPTDHALAEKTSHV
B2: Protein SGT1 homolog (protein, UniProt Q9Y2Z0-1 1-365)
chain: MAAAAAGTATSQRFFQSFSDALIDEDPQAALEELTKALEQKPDDAQYYCQRAYCHILLGNYCVAVADAKKSLELNPNNSTAMLRKGICEYHEKNYAAALETFTEGQKLDIETGFHRVGQAGLQLLTSSDPPALDSQSAGITGADANFSVWIKRCQEAQNGSESEVWTHQSKIKYDWYQTESQVVITLMIKNVQKNDVNVEFSEKELSALVKLPSGEDYNLKLELLHPIIPEQSTFKVLSTKIEIKLKKPEAVRWEKLEGQGDVPTPKQFVADVKNLYPSSSPYTRNWDKLVGEIKEEEKNEKLEGDAALNRLFQQIYSDGSDEVKRAMNKSFMESGGTVLSTNWSDVGKRKVEINPPDDMEWKKY
B3: STAM-binding protein (protein, UniProt O95630-1 1-424)
chain: MSDHGDVSLPPEDRVRALSQLGSAVEVNEDIPPRRYFRSGVEIIRMASIYSEEGNIEHAFILYNKYITLFIEKLPKHRDYKSAVIPEKKDTVKKLKEIAFPKAEELKAELLKRYTKEYTEYNEEKKKEAEELARNMAIQQELEKEKQRVAQQKQQQLEQEQFHAFEEMIRNQELEKERLKIVQEFGKVDPGLGGPLVPDLEKPSLDVFPTLTVSSIQPSDCHTTVRPAKPPVVDRSLKPGALSNSESIPTIDGLRHVVVPGRLCPQFLQLASANTARGVETCGILCGKLMRNEFTITHVLIPKQSAGSDYCNTENEEELFLIQDQQGLITLGWIHTHPTQTAFLSSVDLHTHCSYQMMLPESVAIVCSPKFQETGFFKLTDHGLEEISSCRQKGFHPHSKDPPLFCSCSHVTVVDRAVTITDLR

Target: LRRC8A-BirA*-HA fusion protein (human) (UniProt Q8IWT6)
Test: proximity labelling; BioID: HEK293 cells stably expressing LRRC8A-BirA*-HA (two clones), 50 uM biotin 24 h, RIPA lysis, streptavidin bead pull-down of biotinylated proteins, TMT labelling and LC-MS/MS; hits: FDR <= 0.05 and fold change >= 2 against the no-biotin control

binding, binds:
B1
B2
B3

No constants are given. Whether binding was seen depends on the method and setting. Binding seen in cells or lysates may run through a third protein. A yes stands for co-enrichment or nearness to the bait. Other partners may have been found.
